Assay results: US20230303648A1 (OSE IMMUNOTHERAPEUTICS, published 2023)
Results are given in words; binding and its absence hold for the method and conditions named. Some entries that bind do so weakly or less than the wild type.

Protein sequences, listed by entry. Tags and fused reporters are not part of them. Lines headed by an entry give the natural chain unless they say otherwise; changes in a name come on top. Residues count along the entry.
UniProt Q15116, residues 25-167: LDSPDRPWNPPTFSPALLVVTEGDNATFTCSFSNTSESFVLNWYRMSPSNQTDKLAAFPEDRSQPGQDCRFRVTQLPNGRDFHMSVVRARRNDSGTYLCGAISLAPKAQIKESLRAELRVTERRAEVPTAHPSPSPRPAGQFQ

Molecular target: recombinant human PD-1 (rPD1; Sino Biologicals, reference 10377-H08H) (human) (UniProt Q15116)
Experiment: ELISA, recombinant human PD-1 immobilised, anti-human Fc-peroxidase, TMB

B1: anti-PD1*2 (control antibody without any IL7) (antibody, IgG4, V domains shown)
VH: QIQLVQSGSELKKPGASVKVSCKASGYTFTHYAMNWVRQAPGQGLEWMGWINTNTGEPTYAQGFTGRFVFSLDTSVSTAYLQISSLKAEDTAVYYCAREREPGMDNWGQGTLVTVSS
VL: DVVMTQSPLSLPVTLGQPASISCRSSQSLVHANTNTYLEWYQQRPGQSPRLLIYKVSNRFSGVPDRFSGSGSGTDFTLKISRVEAEDVGVYYCFQGTHVPNTFGQGTKLEIKR
notes: two anti PD-1 arms
- binding: binds
